Results from PMC7926980, “The Antiproliferative and Apoptotic Effect of a Novel Synthesized S-Triazine Dipeptide Series, and Toxicity Screening in Zebrafish Embryos” (Molecules, 2021).

Tested on: MDA-MB-231 cells
Test: MTT cell viability assay, MDA-MB-231
Assay type: cell-based
Settings: Homo sapiens, 72 h treatment
Method: The antiproliferative activity of the synthesized compounds was evaluated by the 3-(4,5-dimethylthiazol-2-yl)-2,5-diphenyl tetrazolium bromide (MTT) cell viability assay. Two types of breast cancer cell lines—namely MCF-7, which has estrogen and progesterone receptors, and MDA-MB-231, which is triple negative—were used, in addition to a colon cancer cell line (HCT-116). […] Overall, the morpholine-containing compounds tended to show greater activity than the piperidine-containing compounds in the MCF-7 cell line. In this regard, it is important to highlight compound 3a, the activity of which was below µM.
The target products 3a–o were evaluated for their antiproliferative activity using the MTT viability assay of the MCF-7, MDA-MB-231 and HCT-116 cell lines (in triplicate) on at least three independent occasions for the determination of the reported mean values. […]
In order to calculate the relative IC50 values, the antiproliferative effect of compounds 3a–o was tested in three cancer cell lines (MCF-7, MDA-MB-231, HCT-116) and normal epithelial embryonic kidney cells (HEK-293) using the MTT viability assay. […] The absorbance was detected with a microplate reader at 570 nm. The results were expressed as a percentage of viability relative to the vehicle control (100%). […]

- IC50: 15.01 ± 0.12 µM
SMILES: CC/C(=C(\c1ccccc1)c1ccc(OCCN(C)C)cc1)c1ccccc1 [Tamoxifen, reference compound]
